Source: patent publication US12415832B2 (University of South Florida, priority 2019, dated 2025)

Assay: general procedure: Fmoc solid-phase peptide synthesis; Rink Amide-MBHA resin (0.646 mmol/g); HOBt/DIC
Conditions: whole synthesis, analytical HPLC, scale of the general procedure 100 mg resin

Flu-Beta-Ala-SQEQLEHRERSLQTLRDIQRMLF
final HPLC purity: 100.0%

Ac-SQEQLEHRERSLQTLRDIQRMLF-NH2
final HPLC purity: 100.0%
